Measured values reported in publication PMC4366199, “Arfaptin-1 Negatively Regulates Arl1-Mediated Retrograde Transport” (PLoS ONE, 2015).

Molecular target: T1, GST-Arl1QL (Arf-like protein 1, Gln71 to Leu, putative active GTP-bound form) (human) (UniProt P40616)
T1 sequence: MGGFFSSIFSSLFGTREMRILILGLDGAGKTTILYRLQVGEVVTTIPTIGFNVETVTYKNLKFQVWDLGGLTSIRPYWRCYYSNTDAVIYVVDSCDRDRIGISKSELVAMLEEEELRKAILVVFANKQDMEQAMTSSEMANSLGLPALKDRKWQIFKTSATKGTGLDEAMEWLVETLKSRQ
Assay: affinity purification with mass spectrometry; differential affinity chromatography: immobilized GST-Arl1QL, GST-Arl1TN and GST control with HeLa cell proteins; one-dimensional SDS-PAGE and nano-LC-MS/MS; only the target purified

B1: arfaptin-1b (Arf-interacting protein 1b, long isoform), endogenous (natural protein, human (endogenous in HeLa), UniProt P53367 1-373, looked up)
chain: MAQESPKNSAAEIPVTSNGEVDDSREHSFNRDLKHSLPSGLGLSETQITSHGFDNTKEGVIEAGAFQGSPAPPLPSVMSPSRVAASRLAQQGSDLIVPAGGQRTQTKSGPVILADEIKNPAMEKLELVRKWSLNTYKCTRQIISEKLGRGSRTVDLELEAQIDILRDNKKKYENILKLAQTLSTQLFQMVHTQRQLGDAFADLSLKSLELHEEFGYNADTQKLLAKNGETLLGAINFFIASVNTLVNKTIEDTLMTVKQYESARIEYDAYRTDLEELNLGPRDANTLPKIEQSQHLFQAHKEKYDKMRNDVSVKLKFLEENKVKVLHNQLVLFHNAIAAYFAGNQKQLEQTLKQFHIKLKTPGVDAPSWLEEQ
notes: arfaptin-1b, long isoform of arfaptin-1 with an insertion (residues 69-100) absent from arfaptin-1a; source: endogenous, HeLa lysate
- binding: binds

No constants are given. Whether binding was seen depends on the method and setting. Binding seen in cells or lysates may run through a third protein. Here binding means that the protein was enriched with, or labelled near, the bait; the list need not be complete. Sequences can lack the tags named with a protein.
